The results are deposited in PubChem (AID1159506; NCATS, 2015).

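Genome-wide siRNA knockdown in TC32 Ewing sarcoma cells, comparing luciferase light from an NR0B1-promoter reporter with a CMV-promoter reporter 48 hours after transfection. Each siRNA was applied at 20 nM. A z-score of the log NR0B1-over-CMV signal, less the median of siRNAs with the same seed; more negative means a stronger specific loss of the NR0B1 reporter.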

The strongest results of the screen are mostly left out here. Sequences are the guide (antisense) strand, without overhang.

* UAAUUCCUAAGUCACUCUG against KIF25 : seed-corrected z-score -0.01038
* UUAGUAUUUGUAUUGAUCC against ADGRL4 : seed-corrected z-score 0.05779
* UCAAAGUCCGAGUAACGGC against SNX21 : seed-corrected z-score -0.2545
* UGUUUUUAGUCUUUGUUCC against TUBB6 : seed-corrected z-score 0.912
* UUAACCACUACAAUGAAAC against CXCR6 : seed-corrected z-score 0.2488
* UAGCGAGUCACGUAGUUGC against SMUG1 : seed-corrected z-score 0.5246
* UAAGGCUCAAGGAGGCAAU against KCTD17 : seed-corrected z-score 2.877
* UUAAGGUCGGAGAAGUCAC against NHSL1 : seed-corrected z-score 0.3576
* UGUACGAAUAGGUAAGGGU against CEND1 : seed-corrected z-score -0.3958
* UCUUUGUCCAGGUAACUAG against THRA : seed-corrected z-score -1.067
* UUGGUGACGGUGUAUGUAG against LOC643339 : seed-corrected z-score 0.1289
* UUAAUGGGCAUAUCUGAAG against C1QTNF9 : seed-corrected z-score 0.4207
* UCAUGAACACCACCAAGGG against C15orf48 : seed-corrected z-score -0.3871
* AGAUGAAUGGAGAGAAGGC against LOC399886 : seed-corrected z-score -0.1358
* UUCACUAAUUUUUCCUAGG against FLJ37453 : seed-corrected z-score -0.556
* UCGGACAUAACUGUCGUGG against BLVRB : seed-corrected z-score -0.3251
* AAUCUGUACCUUAAAGUGA against KRTAP4-7 : seed-corrected z-score -1.033
* AGACCAAUGACGAUCAUCC against DDX23 : seed-corrected z-score -0.5282
* AAAGCGGUCAAAGAGCAGG against TRIL : seed-corrected z-score 0.04931
* UGUUAAGCCCUUCAAAUAG against SPINK8 : seed-corrected z-score -0.3482
* UUAGCGGAUAUUCUUUUGG against NLK : seed-corrected z-score 0.3326
* UAGCGAUCCACUGACACCA against GPR101 : seed-corrected z-score 0.7238
* UCAAAGUACCGAAUGCUGC against CORO6 : seed-corrected z-score 1.1
* UAUAAGAUAAUGUCACCUC against EBF2 : seed-corrected z-score -0.7651
* UGUUCUGAUAGCCUGUUCC against TTC8 : seed-corrected z-score 1.226
* UCCGUUUUGAUAUAAGCAG against EGF : seed-corrected z-score 0.5704
* UUGAGAAUCCCAAAGACCC against FLJ40288 : seed-corrected z-score -1.276
* UAGAAGUCGACCAGCUCGU against GRAP : seed-corrected z-score 0.06665
* CUCCAGCAAAGUUAGGACC against LOC646014 : seed-corrected z-score 1.085
* UGUUCGAGAACUAUCCAGC against DNAH14 : seed-corrected z-score 0.3625
* UAAAACUUCGCUCAAGUCG against ZFP36L1 : seed-corrected z-score 0.7264
* UAUCUAAGGACUUCAGCUC against EIF2B3 : seed-corrected z-score -0.2484
* AAAGUUCUCAAUCUUAUUC against FAM160A2 : seed-corrected z-score -1.006
* UUAGUGACAGUCACACUUC against IGFN1 : seed-corrected z-score 0.2054
* UUGCGGAUCUGCUCUGUCU against PROKR1 : seed-corrected z-score -1.241
* UUCUAAAGCACAGUUGCCG against LNP1 : seed-corrected z-score 0.8933
* UCAGCUCUCAGAAACCUGA against FAM167B : seed-corrected z-score 0.09721
* UAUAGUUCUUGAGUCGUAG against LARS : seed-corrected z-score -0.3342
* UACAUCAACCGUGACCUGC against FANCA : seed-corrected z-score 0.384
* UUGUCUUUGCGGUAUUUCC against GALNT10 : seed-corrected z-score -0.333
* UAUGCUCAUCUGGAUGUAC against TMEM147 : seed-corrected z-score 1.187
* UCCGUGAUCUCUGUCUUGC against KRT13 : seed-corrected z-score 0.03417
* UUUGAAACCCAAAACACCA against ERAS : seed-corrected z-score 0.3235
* UUUGAGAUGCUGCAAUGCC against GCKR : seed-corrected z-score -0.4204

Some entries from above, unchanged:

Sequence	gene	seed-corrected z-score
UUCACUAAUUUUUCCUAGG	FLJ37453	-0.556
UUAAUGGGCAUAUCUGAAG	C1QTNF9	0.4207
UGUUUUUAGUCUUUGUUCC	TUBB6	0.912
UUAAGGUCGGAGAAGUCAC	NHSL1	0.3576
UAUAGUUCUUGAGUCGUAG	LARS	-0.3342